Laboratory results from the supplement of paper PMC8166895.
“And” between values parts separate entries of the source, which are not always exact repeats. Identical values can stand only once. Counter-ions that a name gives are not always drawn. The list shows a part of the results. Most entries show no effect beyond the scatter of the controls.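 A single-replicate pilot screen of approved drugs and clinical or known-target compounds measured melting temperature via differential scanning fluorimetry. Top stabilizing hits raised the melting point by 2 °C or more; negative shifts indicate destabilization.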

Tested on: SARS-CoV-2 main protease (Mpro, nsp5)
Test: thermal shift ΔTm of Mpro relative to plate average Tm; higher = stronger thermal stabilization of Mpro (binding)
Conditions: 10 µM; protein concentration 1 µM

| Structure (SMILES) | thermal shift ΔTm of Mpro |
| --- | --- |
| Cc1ccccc1C(=O)Nc1ccc(C(=O)N2CCCC(O)c3cc(Cl)ccc32)c(C)c1 (configuration not stated) [Tolvaptan] | -0.0958 °C |
| CC(=O)O[C@H]1CC[C@@]2(C)C(=CC[C@@H]3[C@@H]2CC[C@]2(C)C(c4cccnc4)=CC[C@@H]32)C1 [Abiraterone Acetate] | -0.566 °C |
| O=C1NC(=NCc2cccs2)S/C1=C\c1ccc2ncccc2c1 | -0.183 °C |
| Nc1nc2[nH]cnc2c(=S)[nH]1 [Thioguanine] | -0.00517 °C |
| C=CC(=O)Nc1cc(Nc2ncc(C(=O)Nc3cc(NC(=O)c4cc(OC)c(OC)c(OC)c4)ccc3C)c(NC)n2)ccc1C | 0.0692 °C |
| NC(=O)c1ccc(-c2nc(-c3ccc4c(c3)OCCO4)c(-c3ccccn3)[nH]2)cc1 | 1.34 °C |
| CC(C)c1cc2c(cc1S(=O)(=O)O)[C@@]1(C)CCC[C@@](C)(C(=O)O)[C@@H]1CC2 [Ecabet Sodium] | 0.106 °C |
| CC[C@H]1OC(=O)[C@H](C)[C@@H](O[C@H]2C[C@@](C)(OC)[C@@H](O)[C@H](C)O2)[C@H](C)[C@@H](O[C@@H]2O[C@H](C)C[C@H](N(C)C)[C@H]2O)[C@](C)(O)C[C@@H](C)C(=O)[C@H](C)[C@H]2OC(=O)O[C@@]21C [Erythromycin Cyclocarbonate] | 0.0467 °C |
| Cc1c(OCC(F)(F)F)ccnc1C[S@@+]([O-])c1nc2ccccc2[nH]1 [Dexlansoprazole] | -0.205 °C |
| COc1ccc2c(c1)Nc1ccccc1S2 [2-Methoxyphenothiazine] | 0.0203 °C |
| O=C(OCC(O)CO)c1ccccc1Nc1ccnc2cc(Cl)ccc12 (configuration not stated) [Glafenine Hydrochloride] | -0.177 °C |
| O=C(OCC(O)CO)c1ccccc1Nc1ccnc2cc(Cl)ccc12 (configuration not stated) [Glafenine] | 0.0874 °C |
| CC(C(=O)O)c1ccc(-c2ccccc2)c(F)c1 (configuration not stated) [Flurbiprofen] | 0.0698 °C and -0.124 °C |
| NC(=O)c1cn(Cc2c(F)cccc2F)nn1 [Rufinamide] | 0.222 °C |
| Cc1cc(O)c2c(c1)C(=O)c1cccc(O)c1C2=O [Chrysophanic Acid] | -0.0142 °C |
| CN(C)CCN1C(=O)c2cccc3cc(NC(N)=O)cc(c23)C1=O | 0.0149 °C |
| C[C@H]1O[C@@H](O[C@H]2[C@@H](O)C[C@H](O[C@H]3[C@@H](O)C[C@H](O[C@H]4CC[C@@]5(C)[C@H](CC[C@@H]6[C@@H]5C[C@@H](O)[C@]5(C)[C@@H](C7=CC(=O)OC7)CC[C@]65O)C4)O[C@@H]3C)O[C@@H]2C)C[C@H](O)[C@@H]1O [Digoxin] | -0.0445 °C |
| NS(=O)(=O)c1cc2c(cc1Cl)NC(C(Cl)Cl)NS2(=O)=O (configuration not stated) [Trichlormethiazide] | 0.0572 °C |
| CN[C@@H]1[C@H](O)[C@H](NC)[C@H]2O[C@@]3(O)C(=O)C[C@@H](C)O[C@H]3O[C@@H]2[C@H]1O [Spectinomycin HCl] | -0.00329 °C |
| NC(=O)c1cnc(N[C@@H]2CCCC[C@@H]2N)nc1Nc1cccc(-n2nccn2)c1 | -0.0938 °C and 0.168 °C |
| CC[C@@](C)(Nc1ccnc(-c2c[nH]c3ncccc23)n1)C(=O)NCC(F)(F)F [Decernotinib] | 0.131 °C |
| Cc1onc(-c2ccccc2Cl)c1C(=O)N[C@@H]1C(=O)N2[C@@H]1SC(C)(C)[C@@H]2C(=O)O [Cloxacillin Sodium] | 0.0358 °C |
| COc1ccc(Cn2ccc3ccc(C(=O)NO)cc32)cc1 | 0.0141 °C |
| C#Cc1cccc(Nc2ncnc3cc(OCCOC)c(OCCOC)cc23)c1 [Erlotinib HCl (OSI-744)] | -0.102 °C |

| Structure (SMILES) | thermal shift ΔTm of Mpro |
| --- | --- |
| C#Cc1cccc(Nc2ncnc3cc(OCCOC)c(OCCOC)cc23)c1 [Erlotinib] | 0.0286 °C |
| COC(=O)C1=CO[C@@H](O[C@@H]2O[C@H](CO)[C@@H](O)[C@H](O)[C@H]2O)[C@@H]2C(CO)=CC[C@H]12 [Geniposide] | 0.00479 °C |
| CCN(CC)CCOC(=O)c1ccc(N)cc1Cl [Chloroprocaine HCl] | -0.0867 °C |
| NC(=O)c1cccc(-c2cc(Nc3ccc(OC(F)(F)F)cc3)ncn2)c1 | 1.08 °C |
| Cc1cc(C)c(CNC(=O)c2cc(-c3ccc(CN4CCOCC4)cc3)cc3c2cnn3C2CCCC2)c(=O)[nH]1 | -0.0859 °C |
| CC(=O)N[C@@H]1C[C@H](NC(C)(C)C)CC[C@@H]1N1CC[C@H](Nc2ncnc3cc(C(C)(C)C)nn23)C1=O | 0.0588 °C |
| NC(=O)CN1CC(O)CC1=O (configuration not stated) [Oxiracetam] | 0.127 °C |
| C[C@H](N=C(NC#N)Nc1cccc2ncccc12)c1ccccc1 | -0.0285 °C |
| CC/C(=C(\c1ccc(O)cc1)c1ccc(OCCN(C)C)cc1)c1ccccc1 [4-Hydroxytamoxifen] | -0.192 °C |
| CCN(CC)CCNc1ccc(C)c2sc3ccccc3c(=O)c12 [Lucanthone] | -0.0719 °C |
| CC1(C)O[C@H]2CC(=O)OC[C@]23[C@H]2CC[C@@]4(C)[C@H](c5ccoc5)OC(=O)[C@H]5O[C@]54[C@]2(C)C(=O)C[C@@H]13 [Limonin] | -0.123 °C |
| Cc1c(-c2ccccc2)oc2c(C(=O)OCCN3CCCCC3)cccc2c1=O [Flavoxate HCl] | 0.0574 °C |
| CCCCCCOC(=O)NC(=N)c1ccc(NCc2nc3cc(C(=O)N(CCC(=O)OCC)c4ccccn4)ccc3n2C)cc1 [Dabigatran Etexilate] | -0.0516 °C |
| O=C(OC1C[C@@H]2CC3C[C@H](C1)N2CC3=O)c1c[nH]c2ccccc12 (some centres not stated) [Dalasetron Mesylate Hydrate] | 0.0546 °C |
| Cc1ccc(-c2nn(C(C)(C)C)c3ncnc(N)c23)cc1 | 0.0188 °C |
| NS(=O)(=O)c1ccc(NC2=CC(=O)c3ccccc3C2=O)cc1 | -0.0851 °C |
| CC(=O)NC(Cc1ccccc1)C(=O)O (configuration not stated) [Afalanine] | 0.318 °C |
| CC(C)C[C@@H](C(=O)N[C@H](C(=O)OC1CCCC1)c1ccccc1)[C@H](O)C(=O)NO [Tosedostat] | -0.0141 °C |
| COc1ccc(O)cc1 [Mequinol] | -0.394 °C |
| CCN(CC)CCNC(=O)c1cc(Cl)c(N)cc1OC [MetoclopraMide HCl] | -0.0255 °C |
| CCOc1ccc2ccccc2c1C(=O)N[C@@H]1C(=O)N2[C@@H]1SC(C)(C)[C@@H]2C(=O)O [Nafcillin Sodium] | -0.0582 °C |
| C[CH2][Hg][S]c1ccccc1C(=O)[O-].[Na+] [Thimerosal] | -3.12 °C |
| N#C/C(=C\c1cn(-c2ccccc2)c2ccccc12)C(=O)O | 0.236 °C |
